Assay results from article PMC12504663.
These are yes or no findings as the source states them, for the method shown. In cells and extracts the contact can be indirect. Some results given as binding are weak or reduced against the parent protein; the word gives no strength.

Target: T1, lysosome-associated membrane protein type 2A (mouse (endogenous in C2C12)) (UniProt P17047)
T1 sequence: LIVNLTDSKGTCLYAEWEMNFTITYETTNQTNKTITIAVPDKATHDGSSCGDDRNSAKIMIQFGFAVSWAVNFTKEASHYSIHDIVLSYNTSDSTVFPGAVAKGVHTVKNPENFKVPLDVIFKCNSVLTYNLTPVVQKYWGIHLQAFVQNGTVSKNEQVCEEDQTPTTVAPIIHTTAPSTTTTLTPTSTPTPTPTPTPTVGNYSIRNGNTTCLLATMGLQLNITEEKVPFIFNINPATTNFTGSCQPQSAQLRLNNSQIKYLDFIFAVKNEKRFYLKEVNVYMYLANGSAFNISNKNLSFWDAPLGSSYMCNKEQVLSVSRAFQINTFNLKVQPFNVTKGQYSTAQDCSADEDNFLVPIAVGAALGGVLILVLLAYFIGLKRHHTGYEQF
Experiment: co-IP; Co-IP in C2C12 myotubes; precipitating antibody, bait and buffer not described in the text shown

binding: binds
B1: C1q/TNF-related protein 9 (protein, UniProt Q4ZJN1 20-333)
chain: QDTCRQGHSGIPGNPGHNGLPGRDGRDGAKGDKGDAGEPGHPGGPGKDGIRGEKGEPGADGRVEAKGIKGDPGSRGSPGKHGPKGSIGPTGEQGLPGETGPQGQKGDKGEVGPTGPEGLMGSTGPLGPKGLPGPMGPIGKPGPRGEAGPMGPQGEPGVRGMRGWKGDRGEKGKVGEAPLVPKSAFTVGLTVISKFPPPDAPIKFDKILYNELNHYNVATGKFTCHVAGVYYFTYHITVFSRNVQVSLVKNGVKVLHTKDSYMSSEDQASGGIVQELKLGDEVWMQVTGGERFNGLFADEDDDTTFTGFLLFSSS
